From patent CN106749661A
Results are given in words; binding and its absence hold for the method and conditions named. Some results given as binding are weak or reduced against the parent protein; the word gives no strength. For part of these data: Where a sequence is shown, tags or fusion partners need not be part of it.

Experiments:
[1] = biological target: T1, PSMP原核蛋白 (PSMP-his6) (human) (UniProt Q1L6U9); assay: ELISA
T1 sequence (looked up): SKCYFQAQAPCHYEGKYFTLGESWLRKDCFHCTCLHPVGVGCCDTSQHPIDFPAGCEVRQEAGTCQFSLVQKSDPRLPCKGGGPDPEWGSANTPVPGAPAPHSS

[2] = biological target: T1, PSMP原核蛋白 (PSMP-his6) (human); assay: Western blot
[3] = biological target: T2, 外源性过表达PSMP的293T细胞裂解液里面的PSMP (human) (UniProt Q1L6U9); assay: Western blot of 293T cell lysate
T2 sequence (looked up): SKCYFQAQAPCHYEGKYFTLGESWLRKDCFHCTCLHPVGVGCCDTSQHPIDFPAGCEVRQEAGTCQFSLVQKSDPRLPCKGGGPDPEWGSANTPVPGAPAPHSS

binding [1]: binds
binding [2]: binds
binding [3]: binds
B1: 抗PSMP的单克隆抗体3D5 (antibody, V domains shown)
VH: EVQLQQSGPELVKPGASVKISCKASGYSFTGYFMNWVMQSHGKSLEWIGRINPYNGDTFYNQKFKGKATLTVDKSSSTAHMELRSLASEDSAVYYCARGGDGYYAFAYWGQGTLVTVSA
VL: NIVMTQSPKSMSMSVGERVTLSCRASENVGTYVSWYQQKPEQSPKLLIYGASNRYTGVPDRFTGSGSATDFTLTISSVQAEDLADYHCGQSYSYMYTFGGGTKLEIKR
